Test results reported in PMC5391139.
Results are given in words; binding and its absence hold for the method and conditions named. In cells and extracts the contact can be indirect. A result given as binding can be weak or reduced; the word gives no strength.

Chains of the proteins cited; added tags and fusions are not shown. Lines headed by an entry give the natural chain unless they say otherwise; changes in a name come on top.
UniProt P61956: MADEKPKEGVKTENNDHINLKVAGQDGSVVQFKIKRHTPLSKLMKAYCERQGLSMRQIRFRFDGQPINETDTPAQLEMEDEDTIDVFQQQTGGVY
UniProt P54252: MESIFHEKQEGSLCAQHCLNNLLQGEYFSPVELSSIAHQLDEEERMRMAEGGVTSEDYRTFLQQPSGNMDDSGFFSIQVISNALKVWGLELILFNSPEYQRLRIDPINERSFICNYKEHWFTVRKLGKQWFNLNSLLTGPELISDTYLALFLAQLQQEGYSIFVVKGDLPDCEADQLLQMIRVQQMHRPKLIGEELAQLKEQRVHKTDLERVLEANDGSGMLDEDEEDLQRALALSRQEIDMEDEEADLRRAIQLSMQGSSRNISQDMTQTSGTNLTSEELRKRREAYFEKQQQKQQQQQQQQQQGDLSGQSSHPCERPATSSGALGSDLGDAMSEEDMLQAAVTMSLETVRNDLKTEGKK

Target: recombinant SUMO2 immobilized on agarose beads (UniProt P61956)
Assay: pull-down; recombinant SUMO1 or SUMO2 immobilized on agarose beads incubated with cleared cell lysates (cells with or without 10 ug/ml bleomycin, 1 h) for 2 h at 4°C; EBC buffer (50 mM Tris pH 7.5, 150 mM NaCl, 1 mM EDTA, 1 mM DTT) with 0.5% NP-40 and benzonase; immunoblot; only the target purified

binding: binds weakly
Substance: endogenous ataxin‐3 (from UniProt P54252 1-361) (enzyme)
